Data published in patent publication US10239893B2, “Controlling the isomerization rate of Azo-BF2 switches using aggregation” (THE TRUSTEES OF DARTMOUTH COLLEGE, priority 2013, dated 2019).
“And” between values parts separate entries of the source, which are not always exact repeats. Identical values can stand only once. At least one structure is not confirmed: it was looked up by name or label, or the drawing left a doubt. Some entries share one result that the patent states for a list of compounds.

What was measured:
[1] = Isomer ratios under dark and at photostationary states by 1H NMR; assay type: physicochemical; details: CD2Cl2
Procedure: ^1H NMR spectroscopy was employed to evaluate the photo-switching efficiency of 10 in CD2Cl2 (0.53 mM).
[…] The LEDs were affixed in a custom irradiation chamber fitted with a cooling fan to maintain ambient temperature. The light intensities at 430 and 600 nm were determined using chemical actinometry^S1 and a Thorlabs optical power meter, respectively. Photoisomerization quantum yields were measured by monitoring the proton integral change in trans/cis isomers after 430 and 600 nm irradiation for 2 and 20 s, respectively. Each quantum yield measurement was repeated three times under the same conditions. The photostationary states (PSS) were determined upon continuous irradiation until no further isomerization was observed using ^1H NMR spectroscopy. PBS buffer is an aqueous solution prepared by dissolving Na2HPO4 (1.420 g), KH2PO4 (0.245 g) NaCl (8.007 g) and KCl (0.201 g) in 1 L deionized water.

[2] = Stability to reduction by glutathione, 10 mM GSH in acetonitrile:PBS buffer (1:1); assay type: physicochemical; details: 10 mM reduced glutathione in acetonitrile:PBS buffer (1:1)
Procedure: The stability of the switches in an aqueous environment was tested by conducting multiple switching cycles (10 cycles shown in FIG. 22a) of 4 in an acetonitrile:PBS buffer (1:1) mixed solvent system. These experiments were conducted by irradiating the sample using 710 nm light, followed by thermal relaxation under dark. […] The stability of switch 4 to reduction by glutathione (GSH) was also tested. The switch was incubated in 10 mM reduced glutathione in acetonitrile:PBS buffer (1:1) solution.

Compound | isomer ratio (trans:cis) of the equilibrated mixture after storage in the dark [1] | stability to reduction by glutathione (in words) [2]
COc1ccc(N=[N+]2C(C#N)=C3C=Cc4ccccc4N3[B-]2(F)F)cc1 [Compound 2] | 93:7 | 
CN(C)c1ccc(N=[N+]2C(C#N)=C3C=Cc4ccccc4N3[B-]2(F)F)cc1 [Compound 4] | 97:3 | 
N#CC1=C2C=Cc3ccccc3N2[B-](F)(F)[N+]1=Nc1ccc(N2CCCCC2)cc1 [Compound 5] | 98:2 | robustness of this class of NIR switches in high concentrations of GSH
CN1CCN(c2ccc(N=[N+]3C(C#N)=C4C=Cc5ccccc5N4[B-]3(F)F)cc2)CC1 [Compound 6] |  | robustness of this class of NIR switches in high concentrations of GSH
N#CC1=C2C=Cc3ccccc3N2[B-](F)(F)[N+]1=Nc1ccc(N2CCOCC2)cc1 [Compound 7] | 97:3 and 94:6 | robustness of this class of NIR switches in high concentrations of GSH
